# Measurements from PubChem BioAssay AID2284105 (EPA ToxCast).
# By UniProt entry, the sequences of proteins in these tests, tags left out.
# UniProt P21397, whole entry, looked up: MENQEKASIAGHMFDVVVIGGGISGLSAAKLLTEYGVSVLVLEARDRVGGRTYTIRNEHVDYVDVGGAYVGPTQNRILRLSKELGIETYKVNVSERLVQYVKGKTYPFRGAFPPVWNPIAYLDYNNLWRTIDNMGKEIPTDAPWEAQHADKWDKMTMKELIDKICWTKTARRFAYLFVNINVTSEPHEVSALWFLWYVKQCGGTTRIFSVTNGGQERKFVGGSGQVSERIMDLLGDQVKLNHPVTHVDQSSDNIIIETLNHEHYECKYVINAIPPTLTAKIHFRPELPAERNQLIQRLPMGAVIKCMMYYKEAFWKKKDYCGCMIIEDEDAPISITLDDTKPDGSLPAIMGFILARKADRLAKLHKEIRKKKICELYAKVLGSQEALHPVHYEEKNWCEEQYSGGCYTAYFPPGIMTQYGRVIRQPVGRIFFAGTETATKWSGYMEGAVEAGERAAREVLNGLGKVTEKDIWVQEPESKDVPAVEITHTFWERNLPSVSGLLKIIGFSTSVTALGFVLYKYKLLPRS
# Listed are the inconclusive results; actives and inactives stand elsewhere. The calls were made as follows: active = hit-call score of the fitted dose curve at least 0.9, where 1 is the maximum; inconclusive = response in the unintended direction; inactive = score below 0.9. Potencies of inconclusive entries are doubtful fits and often do not repeat.
# Molecular target: human Monoamine Oxidase A (MAO-A), MAOA (gene 4128) (UniProt P21397)
# Assay: ERF_FR_ENZ_hMAOA: Eurofins (ERF) Enzymatic LeadHunter Assay for human Monoamine Oxidase A (MAO-A)
# Description: ERF_FR_ENZ_hMAOA is a biochemical, single-readout assay that uses extracted gene-proteins in a cell-free assay. Measurements were taken 0.33 hour after chemical dosing in a 96-well plate. See Monoamine Oxidase A (MAO-A) Human Enzymatic Assay, Cerep.ERF_FR_ENZ_hMAOA is an assay component calculated from the ERF_FR_ENZ_hMAOA assay. It is designed to measure enzyme activity using a type of enzyme reporter as detected by fluorescence intensity with spectrophotometry technology.Data from the assay component ERF_FR_ENZ_hMAOA was analyzed at the assay endpoint, ERF_FR_ENZ_hMAOA, in the positive analysis fitting direction relative to DMSO as the negative control and baseline of activity. Using a type of enzyme reporter, loss-of-signal activity can be used to understand changes in enzymatic activity as they relate to gene MAOA. To generalize the intended target to other relatable targets, this assay endpoint is annotated to the […] intended target family, where the subfamily is monoamine oxidase.
# Human cells are incubated for 45 minutes at room temprature with Kynuramine, diHCl at 350 uM as sunstrate. Test Sample Requirements: Minimum for 1) Screen: 60 ul of 10 mM stock -OR- 1 mg (pre-weighed) for 10 uM final testing. 2) Dose Response: 90 ul of 10 mM stock -OR- 1 mg (pre-weighed) for a top concentration at 10 uM.
row,Compound,AC50
1,O=C(/C=C/c1ccc(O)cc1)CC(=O)/C=C/c1ccc(O)cc1,inconclusive: 8.11 µM
2,CCCCC[C@H](O)CC(=O)CCc1ccc(O)c(OC)c1,inconclusive: 0.0557 µM
